Data: article PMC7862700
The entries are a selection whose mix differs from that of the whole data set. At the low end of the ranking the order means little.

Protein sequences, listed by entry. Tags and fused reporters are not part of them. Lines headed by an entry give the natural chain unless they say otherwise; changes in a name come on top.
UniProt Q9Y603: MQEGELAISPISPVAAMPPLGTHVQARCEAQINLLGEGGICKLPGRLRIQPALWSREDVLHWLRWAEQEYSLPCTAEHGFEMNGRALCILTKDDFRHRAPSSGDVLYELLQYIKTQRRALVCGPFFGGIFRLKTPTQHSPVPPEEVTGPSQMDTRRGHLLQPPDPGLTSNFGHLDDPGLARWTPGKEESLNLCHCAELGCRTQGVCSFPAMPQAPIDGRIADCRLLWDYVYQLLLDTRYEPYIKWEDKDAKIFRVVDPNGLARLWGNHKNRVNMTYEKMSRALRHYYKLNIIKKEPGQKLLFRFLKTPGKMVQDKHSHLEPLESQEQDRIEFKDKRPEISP

These sequences were tested against ETV7 (UniProt Q9Y603) (assay: DAPPL (digital affinity profiling via proximity ligation, sequencing)). Details: 10 mM Tris-HCl pH 7.5, 50 mM NaCl, 1 mM DTT, 4% glycerol, room temperature, 30 min; GST-TFs on glutathione beads, 16-mer random dsDNA library, 0.1% …; high values mean tight binding; double strand, one strand shown; scale: fold enrichment (6-mer frequency, TF over GST control).

Sequence | binding signal
TTGTGT | 1.34
TGATAT | 1.03
CCAAAC | 0.99
TCACAA | 0.971
AACTCA | 1.2
CATTAC | 1.03
GACTTC | 2.2
ACGGCA | 0.995
CTACAG | 0.927
ATAATG | 1.01
AAAAAC | 1.29
AACCTA | 1.03
CTCTCC | 1.31
ATCACA | 0.988
TTTGGA | 1.3
CCGAAA | 1.24
AATATA | 1.36
ACACCT | 1.11
TATGTG | 1.04
TCCGCC | 1.49

Sequence | binding signal
TCCCCG | 1.15
ACTCCG | 1.4
CATACG | 0.993
ACTGAT | 1.13
AGTAAA | 0.988
TTGCTC | 1.59
TCACCC | 1.04
TACCGG | 1.36
CCTTTT | 1.53
CAACAC | 1.13
GTGACC | 1.3
ATGAAC | 1.2
GTCCCC | 1.27
GTTTGA | 1.24
CACTTT | 1.26
TGTCAA | 0.939
AAATAG | 1.23
CTTTGT | 1.36
ATATCC | 2.25
TTCTAT | 1.33

An excerpt of these results, in markdown:

| Sequence | binding signal |
| --- | --- |
| GTTTGA | 1.24 |
| CACTTT | 1.26 |
| TGTCAA | 0.939 |
